Laboratory results as given in the supplement of paper PMC11264405.

Columns and labels:
Test in all cases: minimum inhibitory concentration
meropenem = compound: C[C@@H](O)[C@H]1C(=O)N2C(C(=O)O)=C(S[C@@H]3CN[C@H](C(=O)N(C)C)C3)[C@H](C)[C@H]12 [meropenem]
fidaxomicin = compound: CCc1c(Cl)c(O)c(Cl)c(O)c1C(=O)O[C@H]1[C@H](O)[C@H](OC)[C@H](OC/C2=C\C=C\C[C@H](O)/C(C)=C/[C@H](CC)[C@@H](O[C@@H]3OC(C)(C)[C@@H](OC(=O)C(C)C)[C@H](O)[C@@H]3O)/C(C)=C/C(C)=C/C[C@@H]([C@@H](C)O)OC2=O)O[C@@H]1C [fidaxomicin]
imipenem = compound: C[C@@H](O)[C@H]1C(=O)N2C(C(=O)O)=C(SCCNC=N)C[C@H]12 [imipenem]
linezolid = compound: CC(=O)NC[C@H]1CN(c2ccc(N3CCOCC3)c(F)c2)C(=O)O1 [linezolid]
tigecycline = compound: CN(C)c1cc(NC(=O)CNC(C)(C)C)c(O)c2c1C[C@H]1C[C@H]3[C@H](N(C)C)C(O)=C(C(N)=O)C(=O)[C@@]3(O)C(O)=C1C2=O [tigecycline]
metronidazole = compound: Cc1ncc([N+](=O)[O-])n1CCO [metronidazole]
vancomycin = compound: CN[C@H](CC(C)C)C(=O)N[C@H]1C(=O)N[C@@H](CC(N)=O)C(=O)N[C@H]2C(=O)N[C@H]3C(=O)N[C@H](C(=O)N[C@H](C(=O)O)c4cc(O)cc(O)c4-c4cc3ccc4O)[C@H](O)c3ccc(c(Cl)c3)Oc3cc2cc(c3O[C@@H]2O[C@H](CO)[C@@H](O)[C@H](O)[C@H]2O[C@H]2C[C@](C)(N)[C@H](O)[C@H](C)O2)Oc2ccc(cc2Cl)[C@H]1O [vancomycin]
rifampicin = compound: CO[C@H]1/C=C/O[C@@]2(C)Oc3c(C)c(O)c4c(O)c(c(/C=N/N5CCN(C)CC5)c(O)c4c3C2=O)NC(=O)/C(C)=C\C=C\[C@H](C)[C@H](O)[C@@H](C)[C@@H](O)[C@@H](C)[C@H](OC(C)=O)[C@@H]1C [rifampicin]
clindamycin = compound: CCC[C@@H]1C[C@@H](C(=O)N[C@@H]([C@H]2O[C@H](SC)[C@H](O)[C@@H](O)[C@H]2O)[C@H](C)Cl)N(C)C1 [clindamycin]

| Test System | minimum inhibitory concentration (meropenem) [µg/mL] | minimum inhibitory concentration (fidaxomicin) [µg/mL] | minimum inhibitory concentration (imipenem) [µg/mL] | minimum inhibitory concentration (linezolid) [µg/mL] | minimum inhibitory concentration (tigecycline) [µg/mL] | minimum inhibitory concentration (metronidazole) [µg/mL] | minimum inhibitory concentration (vancomycin) [µg/mL] | minimum inhibitory concentration (rifampicin) [µg/mL] | minimum inhibitory concentration (clindamycin) [µg/mL] |
| --- | --- | --- | --- | --- | --- | --- | --- | --- | --- |
| Clostridioides difficile PCR ribotype 181 isolate #249 (European region: East, country: Romania, isolate source: Human, ribotype: 181) | 4 | 0.125 | 4 | 2 | < 0.03 | 1 | 0.5 | > 32 | 8 |
| Clostridioides difficile PCR ribotype 181 isolate #250 (European region: East, country: Romania, isolate source: Human, ribotype: 181) | 4 | 0.015 | 4 | 2 | < 0.03 | 1 | 0.5 | > 32 | 8 |
| Clostridioides difficile PCR ribotype 181 isolate #251 (European region: East, country: Romania, isolate source: Human, ribotype: 181) | 4 | 0.03 | 4 | 1 | < 0.03 | 1 | 0.5 | > 32 | 16 |
| Clostridioides difficile PCR ribotype 181 isolate #252 (European region: East, country: Romania, isolate source: Human, ribotype: 181) | 4 | 0.015 | 4 | 1 | < 0.03 | 1 | 1 | > 32 | 16 |
| Clostridioides difficile PCR ribotype 181 isolate #253 (European region: East, country: Romania, isolate source: Human, ribotype: 181) | 4 | 0.015 | 4 | 1 | < 0.03 | 1 | 0.5 | > 32 | 8 |
| Clostridioides difficile PCR ribotype 181 isolate #254 (European region: North, country: UK, isolate source: Human, ribotype: 181) | 4 | 0.06 | 4 | 2 | < 0.03 | 1 | 0.5 | > 32 | 8 |
| Clostridioides difficile PCR ribotype 193 isolate #398 (European region: South, country: Spain, isolate source: Animal, ribotype: 193) | 4 | 0.03 | 1 | 2 | 0.06 | 0.25 | 0.5 | < 0.001 | 4 |
| Clostridioides difficile PCR ribotype 204 isolate #399 (European region: West, country: France, isolate source: Animal, ribotype: 204) | 4 | 0.015 | 1 | 2 | < 0.03 | 0.25 | 0.5 | < 0.001 | > 128 |
| Clostridioides difficile PCR ribotype 216 isolate #256 (European region: West, country: France, isolate source: Human, ribotype: 216) | 4 | 0.06 | 1 | 1 | 0.125 | 0.25 | 0.5 | < 0.001 | 0.5 |
| Clostridioides difficile PCR ribotype 216 isolate #257 (European region: West, country: France, isolate source: Human, ribotype: 216) | 4 | 0.03 | 2 | < 0.125 | 0.125 | 0.25 | 0.5 | < 0.001 | 8 |
| Clostridioides difficile PCR ribotype 254 isolate #258 (European region: North, country: Sweden, isolate source: Human, ribotype: 254) | 4 | 0.015 | 2 | 2 | < 0.03 | < 0.125 | 1 | < 0.001 | 1 |
| Clostridioides difficile PCR ribotype 277 isolate #259 (European region: North, country: UK, isolate source: Human, ribotype: 277) | 2 | 0.015 | 2 | 2 | < 0.03 | < 0.125 | 0.5 | < 0.001 | 0.5 |
| Clostridioides difficile PCR ribotype 293 isolate #260 (European region: North, country: UK, isolate source: Human, ribotype: 293) | 2 | 0.06 | 2 | 2 | < 0.03 | < 0.125 | 0.5 | < 0.001 | 1 |
| Clostridioides difficile PCR ribotype 356 isolate #262 (European region: South, country: Italy, isolate source: Human, ribotype: 356) | 4 | 0.03 | 4 | 4 | 0.06 | 0.5 | < 0.125 | 16 | 16 |
| Clostridioides difficile PCR ribotype 430 isolate #263 (European region: South, country: Spain, isolate source: Human, ribotype: 430) | 4 | 0.015 | 4 | 2 | < 0.03 | < 0.125 | 1 | 0.004 | 4 |
| Clostridioides difficile PCR ribotype 430 isolate #264 (European region: South, country: Spain, isolate source: Human, ribotype: 430) | 2 | 0.03 | 4 | 2 | 0.06 | 0.25 | 0.5 | < 0.001 | 16 |
| Clostridioides difficile PCR ribotype 431 isolate #265 (European region: South, country: Spain, isolate source: Human, ribotype: 431) | 2 | 0.015 | 2 | 2 | < 0.03 | < 0.125 | 1 | 0.5 | 16 |
| Clostridioides difficile PCR ribotype 454 isolate #400 (European region: West, country: Netherlands, isolate source: Animal, ribotype: 454) | 4 | 0.008 | 1 | 2 | < 0.03 | < 0.125 | 0.5 | < 0.001 | 16 |
| Clostridioides difficile PCR ribotype 474 isolate #266 (European region: South, country: Spain, isolate source: Human, ribotype: 474) | 4 | 0.03 | 4 | 2 | 0.06 | < 0.125 | 0.5 | 0.002 | > 128 |
| Clostridioides difficile PCR ribotype 484 isolate #267 (European region: North, country: UK, isolate source: Human, ribotype: 484) | 2 | 0.015 | 2 | 2 | < 0.03 | < 0.125 | 0.5 | < 0.001 | 2 |
| Clostridioides difficile PCR ribotype 570 isolate #401 (European region: East, country: Romania, isolate source: Animal, ribotype: 570) | 2 | 0.03 | 2 | 2 | < 0.03 | < 0.125 | 1 | < 0.001 | 8 |
| Clostridioides difficile PCR ribotype 600 isolate #269 (European region: West, country: France, isolate source: Human, ribotype: 600) | 4 | 0.125 | 4 | 2 | < 0.03 | 0.25 | 0.5 | < 0.001 | 16 |
| Clostridioides difficile PCR ribotype 626 isolate #270 (European region: South, country: Spain, isolate source: Human, ribotype: 626) | 2 | 0.03 | 2 | 2 | < 0.03 | < 0.125 | 1 | 0.002 | 0.5 |
| Clostridioides difficile PCR ribotype 695 isolate #402 (European region: West, country: Netherlands, isolate source: Animal, ribotype: 695) | 2 | 0.008 | 1 | 2 | 0.06 | 0.5 | 0.5 | < 0.001 | < 0.125 |
| Clostridioides difficile PCR ribotype 695 isolate #403 (European region: West, country: Netherlands, isolate source: Animal, ribotype: 695) | 2 | 0.03 | 1 | 2 | 0.06 | 0.5 | 0.5 | < 0.001 | < 0.125 |
| Clostridioides difficile PCR ribotype 695 isolate #404 (European region: West, country: Netherlands, isolate source: Animal, ribotype: 695) | 4 | 0.015 | 2 | 2 | 0.06 | < 0.125 | 0.5 | < 0.001 | < 0.125 |

7 entries from above in a different format.
Test System | minimum inhibitory concentration (meropenem) [µg/mL] | minimum inhibitory concentration (fidaxomicin) [µg/mL] | minimum inhibitory concentration (imipenem) [µg/mL] | minimum inhibitory concentration (linezolid) [µg/mL] | minimum inhibitory concentration (tigecycline) [µg/mL] | minimum inhibitory concentration (metronidazole) [µg/mL] | minimum inhibitory concentration (vancomycin) [µg/mL] | minimum inhibitory concentration (rifampicin) [µg/mL] | minimum inhibitory concentration (clindamycin) [µg/mL]
Clostridioides difficile PCR ribotype 484 isolate #267 (European region: North, country: UK, isolate source: Human, ribotype: 484) | 2 | 0.015 | 2 | 2 | < 0.03 | < 0.125 | 0.5 | < 0.001 | 2
Clostridioides difficile PCR ribotype 570 isolate #401 (European region: East, country: Romania, isolate source: Animal, ribotype: 570) | 2 | 0.03 | 2 | 2 | < 0.03 | < 0.125 | 1 | < 0.001 | 8
Clostridioides difficile PCR ribotype 600 isolate #269 (European region: West, country: France, isolate source: Human, ribotype: 600) | 4 | 0.125 | 4 | 2 | < 0.03 | 0.25 | 0.5 | < 0.001 | 16
Clostridioides difficile PCR ribotype 626 isolate #270 (European region: South, country: Spain, isolate source: Human, ribotype: 626) | 2 | 0.03 | 2 | 2 | < 0.03 | < 0.125 | 1 | 0.002 | 0.5
Clostridioides difficile PCR ribotype 695 isolate #402 (European region: West, country: Netherlands, isolate source: Animal, ribotype: 695) | 2 | 0.008 | 1 | 2 | 0.06 | 0.5 | 0.5 | < 0.001 | < 0.125
Clostridioides difficile PCR ribotype 695 isolate #403 (European region: West, country: Netherlands, isolate source: Animal, ribotype: 695) | 2 | 0.03 | 1 | 2 | 0.06 | 0.5 | 0.5 | < 0.001 | < 0.125
Clostridioides difficile PCR ribotype 695 isolate #404 (European region: West, country: Netherlands, isolate source: Animal, ribotype: 695) | 4 | 0.015 | 2 | 2 | 0.06 | < 0.125 | 0.5 | < 0.001 | < 0.125
